# Some results were stated once for a whole list of compounds, not compound by compound.
# What was measured:
# Format in all cases: in vivo
# [1] = test system: Tobacco Budworm (Heliothis virescens); experiment: Action on tobacco budworm, egg and larval mortality on insect diet in microtiter plates; conditions: 800 ppm; H. virescens eggs on insect diet; egg and larval mortality after 5 days
# Method: For evaluating control of tobacco budworm (Heliothis virescens) the test unit consisted of 96-well-microtiter plates containing an insect diet and 15-25 H. virescens eggs.
# The compounds were formulated using a solution containing 75% v/v water and 25% v/v DMSO. Different concentrations of formulated compounds were sprayed onto the insect diet at 10 μl, using a custom built micro atomizer, at two replications.
# After application, microtiter plates were incubated at about 28+1° C. and about 80+5% relative humidity for 5 days. Egg and larval mortality were then visually assessed.
# [2] = test system: Southern Armyworm (Spodoptera eridania), 2nd Instar Larvae; experiment: Action on southern armyworm 2nd instar larvae on sprayed lima bean plants; conditions: 300 ppm, 4 days after treatment
# Method: The active compounds were formulated by a Tecan liquid handler in 100% cyclohexanone as a 10,000 ppm solution supplied in tubes. The 10,000 ppm solution was serially diluted in 100% cyclohexanone to make interim solutions. These served as stock solutions for which final dilutions were made by the Tecan in 50% acetone:50% water (v/v) into 10 or 20 ml glass vials. A nonionic surfactant (Kinetic®) was included in the solution at a volume of 0.01% (v/v). The vials were then inserted into an automated electrostatic sprayer equipped with an atomizing nozzle for application to plants/insects.
# Lima bean plants (variety Sieva) were grown 2 plants to a pot and selected for treatment at the 1st true leaf stage. Test solutions were sprayed onto the foliage by an automated electrostatic plant sprayer equipped with an atomizing spray nozzle. The plants were dried in the sprayer fume hood and then removed from the sprayer. Each pot was placed into perforated plastic bags with a zip closure. About 10 to 11 armyworm larvae were placed into the bag and the bags zipped closed. Test plants were maintained in a growth room at about 25° C. and about 20-40% relative humidity for 4 days, avoiding direct exposure to fluorescent light (24 hour photoperiod) to prevent trapping of heat inside the bags. Mortality and reduced feeding were assessed 4 days after treatment, compared to untreated control plants.
# [3] = test system: Yellow Fever Mosquito (Aedes aegypti); conditions: 800 ppm; freshly hatched A. aegypti larvae; larval mortality visually assessed after 2 days
# Method: For evaluating control of yellow fever mosquito (Aedes aegypti) the test unit consisted of 96-well-microtiter plates containing 200 μl of tap water per well and 5-15 freshly hatched A. aegypti larvae.
# The active compounds or mixtures were formulated using a solution containing 75% (v/v) water and 25% (v/v) DMSO. Different concentrations of formulated compounds or mixtures were sprayed onto the insect diet at 2.5 μl, using a custom built micro atomizer, at two replications. For experimental mixtures in these tests identical volumes of both mixing partners at the desired concentrations respectively, were mixed together.
# After application, microtiter plates were incubated at 28±1° C., 80±15% RH for 2 days. Larval mortality was then visually assessed.
# [4] = test system: Boll Weevil (Anthonomus grandis); experiment: Action on boll weevil, egg and larval mortality on insect diet in microtiter plates; conditions: 800 ppm; A. grandis eggs on insect diet; egg and larval mortality after 5 days
# Method: For evaluating control of boll weevil (Anthonomus grandis) the test unit consisted of 96-well-microtiter plates containing an insect diet and 5-10 A. grandis eggs.
# The compounds were formulated using a solution containing 75% (v/v) water and 25% (v/v) DMSO. Different concentrations of formulated compounds were sprayed onto the insect diet at 5 μl, using a custom built micro atomizer, at two replications.
# After application, microtiter plates were incubated at about 25+1° C. and about 75+5% relative humidity for 5 days. Egg and larval mortality were then visually assessed.
Molecule,mortality in comparison with untreated controls [1],mortality in comparison with untreated controls [2],mortality in comparison with untreated controls [3],mortality in comparison with untreated controls [4]
Cc1nn(-c2ccc(/C=N/N=C3\SCC(=O)N3c3ccccc3C(C)C)cc2)cc1NC(=O)c1ccccc1C(F)F [Compound C-65],at least 75%,at least 75%,at least 50%,
Cc1nn(-c2ccc(/C=N/N=C3\SCC(=O)N3c3ccccc3C(C)C)cc2)cc1NC(=O)c1ccc(C(F)(F)F)nc1C [Compound C-95],at least 75%,at least 75%,at least 50%,at least 75%
Cc1nn(-c2ccc(/C=N/N=C3\SCC(=O)N3c3ccccc3C(C)C)cc2)cc1NC(=O)c1ccc(F)cc1F [Compound C-71],at least 75%,at least 75%,at least 50%,at least 75%
Cc1nn(-c2ccc(/C=N/N=C3\SCC(=O)N3c3ccccc3C(C)C)cc2)cc1NC(=O)c1ccc(C(F)F)nc1 [Compound C-63],at least 75%,at least 75%,at least 50%,at least 75%
1-[4-[(E)-[(Z)-[3-(2-isopropylphenyl)-4-oxo-thiazolidin-2-ylidene]hydrazono]methyl]phenyl]-3-methyl-N-[4-(trifluoromethoxy) phenyl]pyrazole-4-carboxamide [Compound C-19],at least 75%,at least 75%,at least 50%,
Cc1nn(-c2ccc(C=NN=C3SCC(=O)N3c3ccccc3C(C)C)cc2)cc1NC(=O)c1ccccc1C(F)(F)F [Compound C-107],at least 75%,at least 75%,at least 50%,
Cc1nn(-c2ccc(/C=N/N=C3\SCC(=O)N3c3ccccc3C(C)C)cc2)cc1NC(=O)c1cc(C(F)(F)F)ncc1Cl [Compound C-104],at least 75%,at least 75%,at least 50%,at least 75%
Cc1nn(-c2ccc(/C=N/N=C3\SCC(=O)N3c3ccccc3C(C)C)cc2)cc1NC(=O)c1ccc(F)c(F)c1F [Compound C-101],at least 75%,at least 75%,at least 50%,at least 75%
Cc1nn(-c2ccc(/C=N/N=C3\SCC(=O)N3c3ccccc3C(C)C)cc2)cc1NC(=O)c1ccnc(C(F)F)c1 [Compound C-62],at least 75%,at least 75%,at least 50%,at least 75%
Cc1nn(-c2ccc(/C=N/N=C3\SCC(=O)N3c3ccccc3C(C)C)cc2)cc1NC(=O)c1cccc(C(F)(F)F)c1Cl [Compound C-86],at least 75%,at least 75%,at least 50%,at least 75%
Cc1nn(-c2ccc(/C=N/N=C3\SCC(=O)N3c3ccccc3C(C)C)cc2)cc1NC(=O)c1cc(C(F)(F)F)ccc1Cl [Compound C-106],at least 75%,at least 75%,at least 50%,at least 75%
Cc1nn(-c2ccc(/C=N/N=C3\SCC(=O)N3c3ccccc3C(C)C)cc2)cc1NC(=O)c1cccc(C(F)(F)F)c1 [Compound C-102],at least 75%,at least 75%,at least 50%,at least 75%
Cc1nn(-c2ccc(/C=N/N=C3\SCC(=O)N3c3ccccc3C(C)C)cc2)cc1NC(=O)c1ccnc(C(F)(F)F)n1 [Compound C-98],,at least 75%,at least 50%,at least 75%
Cc1nn(-c2ccc(/C=N/N=C3\SCC(=O)N3c3ccccc3C(C)C)cc2)cc1NC(=O)c1ncc(C(F)(F)F)cc1Cl [Compound C-83],at least 75%,at least 75%,at least 50%,
Cc1nn(-c2ccc(/C=N/N=C3\SCC(=O)N3c3ccccc3C(C)C)cc2)cc1NC(=O)c1ccc(Cl)nc1C(F)(F)F [Compound C-91],at least 75%,at least 75%,at least 50%,
Cc1nn(-c2ccc(/C=N/N=C3\SCC(=O)N3c3ccccc3C(C)C)cc2)cc1NC(=O)c1ccc(C(F)(F)F)nc1 [Compound C-76],at least 75%,at least 75%,at least 50%,at least 75%
Cc1nn(-c2ccc(/C=N/N=C3\SCC(=O)N3c3ccccc3C(C)C)cc2)cc1NC(=O)c1ccc(Cl)cc1C(F)(F)F [Compound C-80],at least 75%,at least 75%,at least 50%,
Cc1nn(-c2ccc(/C=N/N=C3\SCC(=O)N3c3ccccc3C(C)C)cc2)cc1NC(=O)c1cccnc1C(F)(F)F [Compound C-87],at least 75%,at least 75%,at least 50%,at least 75%
Cc1nn(-c2ccc(/C=N/N=C3\SCC(=O)N3c3ccccc3C(C)C)cc2)cc1NC(=O)c1ccc(Cl)c(C(F)(F)F)c1 [Compound C-84],at least 75%,at least 75%,at least 50%,at least 75%
Cc1nn(-c2ccc(/C=N/N=C3\SCC(=O)N3c3ccccc3C(C)C)cc2)cc1NC(=O)c1cccc(SC(F)(F)F)c1 [Compound C-103],at least 75%,at least 75%,at least 50%,at least 75%
Cc1cc(C(=O)Nc2cn(-c3ccc(/C=N/N=C4\SCC(=O)N4c4ccccc4C(C)C)cc3)nc2C)cnc1C(F)(F)F [Compound C-75],at least 75%,at least 75%,at least 50%,at least 75%
Cc1cc(C(F)(F)F)ccc1C(=O)Nc1cn(-c2ccc(/C=N/N=C3\SCC(=O)N3c3ccccc3C(C)C)cc2)nc1C [Compound C-82],at least 75%,at least 75%,at least 50%,at least 75%
Cc1nn(-c2ccc(/C=N/N=C3\SCC(=O)N3c3ccccc3C(C)C)cc2)cc1NC(=O)c1ccc(C(F)(F)F)cc1Cl [Compound C-73],at least 75%,at least 75%,at least 50%,

# Source: patent US12696902B2, “Pesticidal pyrazole and triazole derivatives” (priority 2019, dated 2026)
